The target of the series is T1, AtGRP2-CSD1-90 WT (Arabidopsis thaliana) (UniProt Q41188).
T1 sequence (looked up): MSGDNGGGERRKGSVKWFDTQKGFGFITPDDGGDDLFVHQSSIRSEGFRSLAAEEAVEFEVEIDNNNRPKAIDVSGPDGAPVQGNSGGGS
In words: NMR HSQC titration. Conditions: 20 mM sodium phosphate pH 6.5, 50 mM NaCl, 25 C (fluorescence), NMR titrations in the same buffer plus 250 uM PMSF, 3 mM NaN3, 5% D2O, 298 K, recombinant protein, residues 1-90, protein details: N-terminal Trx(6 aa)-His6-TEV tag, cleaved.

The comparison behind a weaker result is the experiment's own reference, which may not be listed here. Where a protein sequence is shown, tags need not be part of it.

Take CCCCCCC [C7]: the binding result (CSPs lower than T7, similar to U7, single-stranded DNA) was “binds more weakly”.
UUUUUUU [U7]: the binding result was “binds more weakly”.
